Drawing on doi:10.1101/2023.02.08.527677, this text covers binding for 2 substances.

By UniProt entry, the sequences of proteins in these tests, tags left out. Where a name states a change or a piece, a line headed by the entry shows the natural chain unless it says otherwise.
UniProt O15260: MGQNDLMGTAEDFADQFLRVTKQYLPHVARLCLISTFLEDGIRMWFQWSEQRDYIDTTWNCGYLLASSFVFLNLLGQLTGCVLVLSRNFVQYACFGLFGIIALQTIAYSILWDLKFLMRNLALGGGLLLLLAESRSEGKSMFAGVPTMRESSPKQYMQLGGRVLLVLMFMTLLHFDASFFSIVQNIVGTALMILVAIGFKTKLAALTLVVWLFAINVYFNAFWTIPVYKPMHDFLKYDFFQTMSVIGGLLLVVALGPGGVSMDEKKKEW
UniProt P04114: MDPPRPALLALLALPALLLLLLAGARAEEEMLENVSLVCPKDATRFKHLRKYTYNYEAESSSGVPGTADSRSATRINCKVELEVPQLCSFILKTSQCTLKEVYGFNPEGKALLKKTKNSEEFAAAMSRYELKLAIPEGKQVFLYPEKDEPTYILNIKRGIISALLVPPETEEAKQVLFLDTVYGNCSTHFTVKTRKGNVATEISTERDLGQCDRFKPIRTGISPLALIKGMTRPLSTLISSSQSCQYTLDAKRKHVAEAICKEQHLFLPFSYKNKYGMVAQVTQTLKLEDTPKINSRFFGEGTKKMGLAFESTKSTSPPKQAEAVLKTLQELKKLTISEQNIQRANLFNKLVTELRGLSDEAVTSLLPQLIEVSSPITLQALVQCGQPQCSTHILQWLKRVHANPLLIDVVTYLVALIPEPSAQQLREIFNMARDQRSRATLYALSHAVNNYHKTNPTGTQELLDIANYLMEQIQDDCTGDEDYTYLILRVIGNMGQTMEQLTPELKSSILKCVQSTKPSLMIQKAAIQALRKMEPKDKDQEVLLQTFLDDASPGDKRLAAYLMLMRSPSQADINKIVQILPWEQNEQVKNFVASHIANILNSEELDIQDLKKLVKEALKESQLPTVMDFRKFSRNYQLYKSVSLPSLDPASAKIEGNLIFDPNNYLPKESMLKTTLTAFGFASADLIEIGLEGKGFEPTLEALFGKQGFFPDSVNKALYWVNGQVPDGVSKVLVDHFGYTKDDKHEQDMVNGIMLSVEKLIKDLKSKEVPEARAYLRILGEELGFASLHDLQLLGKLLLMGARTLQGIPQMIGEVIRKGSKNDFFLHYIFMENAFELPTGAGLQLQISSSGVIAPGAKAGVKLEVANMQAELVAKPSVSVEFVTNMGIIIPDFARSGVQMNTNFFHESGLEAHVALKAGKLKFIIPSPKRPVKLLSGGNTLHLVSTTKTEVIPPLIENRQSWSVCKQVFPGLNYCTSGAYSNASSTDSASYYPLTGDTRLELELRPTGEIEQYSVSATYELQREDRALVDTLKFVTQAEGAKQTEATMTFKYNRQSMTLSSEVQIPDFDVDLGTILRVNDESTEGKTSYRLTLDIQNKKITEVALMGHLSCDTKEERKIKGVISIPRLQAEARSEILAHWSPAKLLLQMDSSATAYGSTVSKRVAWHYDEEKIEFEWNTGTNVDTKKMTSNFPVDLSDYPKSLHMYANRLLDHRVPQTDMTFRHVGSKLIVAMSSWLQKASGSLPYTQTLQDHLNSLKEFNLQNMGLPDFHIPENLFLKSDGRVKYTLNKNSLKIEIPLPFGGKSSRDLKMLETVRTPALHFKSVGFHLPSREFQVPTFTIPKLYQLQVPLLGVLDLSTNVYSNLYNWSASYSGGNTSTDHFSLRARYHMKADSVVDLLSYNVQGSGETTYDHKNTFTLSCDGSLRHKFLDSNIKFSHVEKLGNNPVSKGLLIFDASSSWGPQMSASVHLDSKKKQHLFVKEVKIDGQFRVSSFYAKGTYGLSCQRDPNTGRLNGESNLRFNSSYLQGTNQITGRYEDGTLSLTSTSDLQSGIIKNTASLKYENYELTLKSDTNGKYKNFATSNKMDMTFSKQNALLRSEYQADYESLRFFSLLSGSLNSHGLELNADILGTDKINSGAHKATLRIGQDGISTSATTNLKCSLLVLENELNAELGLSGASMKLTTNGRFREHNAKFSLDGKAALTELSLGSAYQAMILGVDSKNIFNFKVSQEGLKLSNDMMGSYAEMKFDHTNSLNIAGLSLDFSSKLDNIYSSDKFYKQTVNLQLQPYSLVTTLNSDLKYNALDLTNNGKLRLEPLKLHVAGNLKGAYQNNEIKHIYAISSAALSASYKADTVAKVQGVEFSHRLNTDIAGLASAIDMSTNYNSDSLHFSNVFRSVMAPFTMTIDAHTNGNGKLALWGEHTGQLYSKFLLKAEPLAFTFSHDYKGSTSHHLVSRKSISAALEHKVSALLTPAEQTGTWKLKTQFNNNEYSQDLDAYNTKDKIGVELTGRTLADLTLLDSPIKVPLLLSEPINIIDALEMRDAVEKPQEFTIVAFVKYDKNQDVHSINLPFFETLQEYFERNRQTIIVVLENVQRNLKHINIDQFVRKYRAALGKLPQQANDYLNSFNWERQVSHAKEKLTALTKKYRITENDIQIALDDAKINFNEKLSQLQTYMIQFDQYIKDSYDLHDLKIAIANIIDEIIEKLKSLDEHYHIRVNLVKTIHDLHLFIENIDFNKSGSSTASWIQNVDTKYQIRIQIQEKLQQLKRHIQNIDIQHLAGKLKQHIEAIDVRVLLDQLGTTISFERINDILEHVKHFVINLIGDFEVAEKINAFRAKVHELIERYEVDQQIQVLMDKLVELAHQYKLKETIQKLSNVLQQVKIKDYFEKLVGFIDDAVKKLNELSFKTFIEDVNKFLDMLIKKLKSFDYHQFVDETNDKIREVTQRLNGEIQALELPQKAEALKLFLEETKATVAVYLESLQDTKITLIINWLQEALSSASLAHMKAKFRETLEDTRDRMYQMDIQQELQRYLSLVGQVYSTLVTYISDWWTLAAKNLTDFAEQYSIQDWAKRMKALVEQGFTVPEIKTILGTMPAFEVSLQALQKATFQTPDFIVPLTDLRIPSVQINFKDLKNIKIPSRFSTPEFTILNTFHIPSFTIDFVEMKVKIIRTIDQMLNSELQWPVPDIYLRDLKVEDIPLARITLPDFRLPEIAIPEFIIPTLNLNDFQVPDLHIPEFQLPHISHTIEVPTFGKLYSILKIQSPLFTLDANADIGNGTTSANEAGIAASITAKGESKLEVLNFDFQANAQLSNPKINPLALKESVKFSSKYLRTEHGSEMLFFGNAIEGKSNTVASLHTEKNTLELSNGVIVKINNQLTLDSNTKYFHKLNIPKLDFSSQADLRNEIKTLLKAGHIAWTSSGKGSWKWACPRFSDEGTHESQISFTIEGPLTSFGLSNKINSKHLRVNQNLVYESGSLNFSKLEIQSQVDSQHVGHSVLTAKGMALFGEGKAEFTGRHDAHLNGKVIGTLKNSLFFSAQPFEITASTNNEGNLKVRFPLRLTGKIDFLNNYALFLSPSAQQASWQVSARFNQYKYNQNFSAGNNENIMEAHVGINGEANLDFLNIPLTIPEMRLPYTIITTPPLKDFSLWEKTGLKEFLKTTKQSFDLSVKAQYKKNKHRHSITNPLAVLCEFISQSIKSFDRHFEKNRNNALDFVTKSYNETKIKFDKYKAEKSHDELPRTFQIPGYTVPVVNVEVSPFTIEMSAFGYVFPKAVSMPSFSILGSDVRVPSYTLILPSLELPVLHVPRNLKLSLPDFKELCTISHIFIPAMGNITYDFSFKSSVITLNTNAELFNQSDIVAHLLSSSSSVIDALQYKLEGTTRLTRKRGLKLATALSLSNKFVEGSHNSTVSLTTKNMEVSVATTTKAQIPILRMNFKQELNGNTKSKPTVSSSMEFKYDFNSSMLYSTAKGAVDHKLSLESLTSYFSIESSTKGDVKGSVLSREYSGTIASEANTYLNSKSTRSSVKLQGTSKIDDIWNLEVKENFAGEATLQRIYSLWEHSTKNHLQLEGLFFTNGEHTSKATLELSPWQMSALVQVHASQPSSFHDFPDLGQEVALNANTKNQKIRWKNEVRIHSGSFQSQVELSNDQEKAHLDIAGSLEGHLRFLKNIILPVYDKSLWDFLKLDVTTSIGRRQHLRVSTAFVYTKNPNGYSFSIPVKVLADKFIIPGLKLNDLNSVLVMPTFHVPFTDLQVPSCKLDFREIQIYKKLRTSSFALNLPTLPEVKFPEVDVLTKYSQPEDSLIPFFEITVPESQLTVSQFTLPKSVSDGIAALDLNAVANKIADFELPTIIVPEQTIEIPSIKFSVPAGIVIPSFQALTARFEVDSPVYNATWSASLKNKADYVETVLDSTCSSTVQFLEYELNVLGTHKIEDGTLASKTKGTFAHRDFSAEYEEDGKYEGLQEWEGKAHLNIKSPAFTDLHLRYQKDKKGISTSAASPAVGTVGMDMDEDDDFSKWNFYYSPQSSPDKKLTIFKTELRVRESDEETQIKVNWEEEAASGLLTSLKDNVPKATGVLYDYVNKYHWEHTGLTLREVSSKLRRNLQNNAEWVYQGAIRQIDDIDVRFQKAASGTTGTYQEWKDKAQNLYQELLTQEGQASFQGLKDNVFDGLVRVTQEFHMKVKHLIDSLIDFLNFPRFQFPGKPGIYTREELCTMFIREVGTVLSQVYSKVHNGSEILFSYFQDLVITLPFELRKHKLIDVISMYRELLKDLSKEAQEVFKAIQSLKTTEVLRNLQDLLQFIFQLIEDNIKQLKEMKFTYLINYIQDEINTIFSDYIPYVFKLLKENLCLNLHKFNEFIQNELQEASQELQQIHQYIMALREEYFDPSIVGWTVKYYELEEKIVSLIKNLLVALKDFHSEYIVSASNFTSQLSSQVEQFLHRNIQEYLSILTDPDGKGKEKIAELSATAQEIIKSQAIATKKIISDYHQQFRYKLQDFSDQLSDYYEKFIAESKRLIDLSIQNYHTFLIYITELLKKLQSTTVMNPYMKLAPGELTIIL

The assay addresses surfeit locus protein 4 (Surf4) (human (endogenous in Caco-2)) (UniProt O15260). Kind of assay: co-IP.

Results are given in words; binding and its absence hold for the method and conditions named. Binding seen in cells or lysates may run through a third protein. Some results given as binding are weak or reduced against the parent protein; the word gives no strength.

As for “apolipoprotein B-48 (apoB-48) (from UniProt P04114 28-2179)”, the binding result is given as “binds”.
As to “apolipoprotein B-100 (apoB-100) (from UniProt P04114 28-4563)”, the binding result is “binds”.
